In US8053186:

Legend:
[1] = molecular target: T1, Drosha (endogenous, immunoprecipitated from SEMK2 or PER377 nuclear extracts) (human) (UniProt Q9NRR4); experiment: co-IP with anti-Drosha Ab from PER377 nuclear extracts, Western blot
T1 sequence (looked up): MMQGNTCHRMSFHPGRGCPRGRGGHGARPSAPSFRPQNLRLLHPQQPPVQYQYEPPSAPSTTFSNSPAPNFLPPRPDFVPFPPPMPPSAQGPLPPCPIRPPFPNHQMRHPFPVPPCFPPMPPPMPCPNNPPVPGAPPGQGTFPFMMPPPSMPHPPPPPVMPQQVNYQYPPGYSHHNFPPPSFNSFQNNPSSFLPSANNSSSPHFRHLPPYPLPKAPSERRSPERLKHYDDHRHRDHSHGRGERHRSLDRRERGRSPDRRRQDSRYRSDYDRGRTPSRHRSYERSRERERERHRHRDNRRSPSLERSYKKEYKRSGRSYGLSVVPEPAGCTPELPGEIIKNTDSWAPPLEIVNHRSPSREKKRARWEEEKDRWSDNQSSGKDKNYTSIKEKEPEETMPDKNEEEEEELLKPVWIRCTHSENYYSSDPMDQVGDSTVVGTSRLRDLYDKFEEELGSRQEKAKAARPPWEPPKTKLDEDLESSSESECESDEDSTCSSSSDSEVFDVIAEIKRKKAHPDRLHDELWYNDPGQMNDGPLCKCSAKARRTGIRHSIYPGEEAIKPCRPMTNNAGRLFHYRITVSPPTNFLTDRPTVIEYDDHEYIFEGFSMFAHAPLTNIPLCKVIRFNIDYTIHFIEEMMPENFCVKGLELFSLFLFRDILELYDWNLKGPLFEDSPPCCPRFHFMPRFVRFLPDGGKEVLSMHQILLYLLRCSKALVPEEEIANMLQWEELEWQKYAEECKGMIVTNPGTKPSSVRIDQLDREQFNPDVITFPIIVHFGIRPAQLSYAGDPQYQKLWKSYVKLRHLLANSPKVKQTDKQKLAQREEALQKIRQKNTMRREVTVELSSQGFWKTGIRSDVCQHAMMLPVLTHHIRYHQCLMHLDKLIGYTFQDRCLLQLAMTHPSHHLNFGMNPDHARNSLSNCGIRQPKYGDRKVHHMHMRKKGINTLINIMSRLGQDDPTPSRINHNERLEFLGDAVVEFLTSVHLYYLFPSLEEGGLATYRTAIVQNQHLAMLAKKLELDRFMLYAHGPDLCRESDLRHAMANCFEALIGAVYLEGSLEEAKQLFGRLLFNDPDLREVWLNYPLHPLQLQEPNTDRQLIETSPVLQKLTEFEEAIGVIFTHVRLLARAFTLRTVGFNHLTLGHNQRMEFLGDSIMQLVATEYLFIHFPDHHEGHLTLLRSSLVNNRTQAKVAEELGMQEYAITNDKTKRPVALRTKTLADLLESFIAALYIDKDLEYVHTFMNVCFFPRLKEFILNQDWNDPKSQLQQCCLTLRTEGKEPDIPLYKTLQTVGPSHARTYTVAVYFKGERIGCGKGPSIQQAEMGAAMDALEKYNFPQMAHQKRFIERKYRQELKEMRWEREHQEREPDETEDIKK

[2] = molecular target: T1, Drosha (endogenous, immunoprecipitated from SEMK2 or PER377 nuclear extracts) (human); experiment: co-IP (restated in the discussion)

binding [1]: binds | binding [2]: binds
Substance: All1/Af9 fusion protein (endogenous, PER377 cells with t(9;11)) (human)

Results are given in words; binding and its absence hold for the method and conditions named. Binding seen in cells or lysates may run through a third protein. Binding calls can cover weak binding; strength is not graded here.
